# In US6346601 (dated 2002):
# Experiment: general procedure: hybrid (solid and solution phase) peptide synthesis; 2-chloro trityl chloride resin
Substance,"step yield (purification step, yield of the purification step) [%]",final purity (method not given) (whole synthesis) [%],"isolated yield (whole synthesis, overall synthesis and purification yield)",oxidative folding yield (oxidative folding step)
octreotide,60,99,greater than 40%,
cycle ^(2-7) Boc-D-Phe-Cis-Phe-D-Trp-Lys(Boc)-Thr(tBu)-Cis-OH,,,,between 85 and 95%
